Experimental data as given in paper PMC4273604.
These are yes or no findings as the source states them, for the method shown. For some assays here: Binding seen in cells or lysates may run through a third protein. Some entries that bind do so weakly or less than the wild type. Where a sequence is shown, tags or fusion partners need not be part of it.

By UniProt entry, the sequences of proteins in these tests, tags left out.
UniProt P77324: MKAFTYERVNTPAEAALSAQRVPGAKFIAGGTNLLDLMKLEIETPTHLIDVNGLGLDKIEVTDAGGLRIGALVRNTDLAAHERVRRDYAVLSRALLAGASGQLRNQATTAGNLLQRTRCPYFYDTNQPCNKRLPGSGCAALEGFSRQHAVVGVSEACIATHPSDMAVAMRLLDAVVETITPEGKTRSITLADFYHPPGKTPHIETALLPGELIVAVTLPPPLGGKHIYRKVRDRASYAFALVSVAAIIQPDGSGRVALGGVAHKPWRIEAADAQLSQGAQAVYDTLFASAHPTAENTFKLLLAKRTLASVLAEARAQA

T1: PaoA in the periplasmic fraction of ΔpaoAB-paoC::Kan cells expressing PaoABC (E. coli) (UniProt P77165)
T1 sequence: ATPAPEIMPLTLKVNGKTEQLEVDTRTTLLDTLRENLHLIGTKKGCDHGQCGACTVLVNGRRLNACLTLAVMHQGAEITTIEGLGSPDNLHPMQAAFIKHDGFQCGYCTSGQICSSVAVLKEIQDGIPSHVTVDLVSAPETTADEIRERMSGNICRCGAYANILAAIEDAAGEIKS

T2: PaoA with a 6xHis-tag (hexahistidine-tagged version of PaoA, from plasmid pPaoAhBC) (E. coli) (UniProt P77165)
T2 sequence: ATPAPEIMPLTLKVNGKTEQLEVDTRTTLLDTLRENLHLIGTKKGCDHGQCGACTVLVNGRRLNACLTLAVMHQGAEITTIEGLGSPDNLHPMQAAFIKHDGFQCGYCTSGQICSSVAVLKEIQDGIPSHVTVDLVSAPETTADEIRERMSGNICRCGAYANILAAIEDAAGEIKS


What was measured:
[1] = biological target: T1, PaoA in the periplasmic fraction of ΔpaoAB-paoC::Kan cells expressing PaoABC (E. coli); assay: native gel or EMSA; blue native PAGE of the periplasmic fraction of ΔpaoAB-paoC::Kan cells expressing PaoABC
[2] = biological target: T2, PaoA with a 6xHis-tag (hexahistidine-tagged version of PaoA, from plasmid pPaoAhBC) (E. coli); assay: pull-down; PaoA-6xHis co-produced with PaoB-FLAG and PaoC-HA in ΔpaoAB-paoC::Kan cells; soluble lysate on Ni-NTA spin columns, washed with 50 mM NaH2PO4, 300 mM NaCl, 20 mM imidazole pH 8.0, eluted with 500 mM imidazole; immunoblot of the eluate
[3] = biological target: T1, PaoA in the periplasmic fraction of ΔpaoAB-paoC::Kan cells expressing PaoABC (E. coli); assay: SEC; gel filtration of the periplasmic fraction of ΔpaoAB-paoC::Kan cells expressing PaoABC
[4] = biological target: T2, PaoA with a 6xHis-tag (hexahistidine-tagged version of PaoA, from plasmid pPaoAhBC) (E. coli); assay: native gel or EMSA; blue native PAGE (Novex NativePAGE) of the Ni2+-affinity eluate with the co-purified Pao proteins, desalted into 20 mM Tris/Cl pH 7.4

binding [1]	binding [2]	binding [3]	binding [4]	Molecule
binds	binds	binds	binds	PaoB-FLAG (from UniProt P77324 1-318)
binds	binds	binds	binds	PaoC-HA (protein, UniProt P77489 1-732) MKFDKPAGENPIDQLKVVGRPHDRIDGPLKTTGTARYAYEWHEEAPNAAYGYIVGSAIAKGRLTALDTDAAQKAPGVLAVITASNAGALGKGDKNTARLLGGPTIEHYHQAIALVVAETFEQARAAASLVQAHYRRNKGAYSLADEKQAVNQPPEDTPDKNVGDFDGAFTSAAVKIDATYTTPDQSHMAMEPHASMAVWDGNKLTLWTSNQMIDWCRTDLAKTLKVPVENVRIISPYIGGGFGGKLFLRSDALLAALAARAVKRPVKVMLPRPSIPNNTTHRPATLQHLRIGADQSGKITAISHESWSGNLPGGTPETAVQQSELLYAGANRHTGLRLATLDLPEGNAMRAPGEAPGLMALEIAIDELAEKAGIDPVEFRILNDTQVDPADPTRCFSRRQLIECLRTGADKFGWKQRNATPGQVRDGEWLVGHGVAAGFRNNLLEKSGARVHLEQNGTVTVETDMTDIGTGSYTILAQTAAEMLGVPLEQVAVHLGDSSFPVSAGSGGQWGANTSTSGVYAACMKLREMIASAVGFDPEQSQFADGKITNGTRSATLHEATAGGRLTAEESIEFGTLSKEYQQSTFAGHFVEVGVHSATGEVRVRRMLAVCAAGRILNPKTARSQVIGAMTMGMGAALMEELAVDDRLGYFVNHDMAGYEVPVHADIPKQEVIFLDDTDPISSPMKAKGVGELGLCGVSAAIANAVYNATGIRVRDYPITLDKLLDKLPDVV
